Laboratory results as given in the M2OR odorant receptor database.
Only a part is listed here, and it is no random draw. Calls are pooled over several reports, among them a noisy single-well screen. The list shows a part of the results.

Columns and labels:
Settings in all cases: stereoisomer not certain
OR10C1 (Homo sapiens) = molecular target: T1, OR10C1 (Homo sapiens) (UniProt Q96KK4)
T1 sequence (whole entry): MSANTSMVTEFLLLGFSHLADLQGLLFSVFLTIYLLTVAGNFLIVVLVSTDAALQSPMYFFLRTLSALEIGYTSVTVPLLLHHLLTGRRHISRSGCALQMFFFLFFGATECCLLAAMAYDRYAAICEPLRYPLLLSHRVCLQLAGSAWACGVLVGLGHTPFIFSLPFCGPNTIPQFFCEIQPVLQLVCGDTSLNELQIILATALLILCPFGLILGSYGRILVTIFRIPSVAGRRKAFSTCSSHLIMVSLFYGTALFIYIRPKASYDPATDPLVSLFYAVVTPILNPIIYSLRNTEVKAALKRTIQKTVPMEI
Outline: (§1)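 Transient luciferase assays in mammalian cell lines were common, though methods varied by source. The values come from published papers and their supplementary material, with extra details from the original authors when needed. Responsive refers to a measured signal the original authors judged statistically different from baseline, and non-responsive (inactive) to the remainder.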

OR10G6 (Homo sapiens) = molecular target: T2, OR10G6 (Homo sapiens) (UniProt Q8NH81)
T2 sequence (whole entry): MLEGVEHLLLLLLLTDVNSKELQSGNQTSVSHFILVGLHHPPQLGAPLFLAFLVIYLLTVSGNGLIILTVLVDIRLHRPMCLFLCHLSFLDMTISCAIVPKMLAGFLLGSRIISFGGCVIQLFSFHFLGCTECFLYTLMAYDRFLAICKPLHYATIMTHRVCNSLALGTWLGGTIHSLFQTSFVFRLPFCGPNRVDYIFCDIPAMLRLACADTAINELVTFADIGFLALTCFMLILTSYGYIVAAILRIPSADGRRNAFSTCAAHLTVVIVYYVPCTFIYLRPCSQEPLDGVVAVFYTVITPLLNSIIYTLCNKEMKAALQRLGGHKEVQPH
Outline: as §1

OR10G7 (Homo sapiens) = molecular target: T3, OR10G7 (Homo sapiens) (UniProt Q8NGN6)
T3 sequence (whole entry): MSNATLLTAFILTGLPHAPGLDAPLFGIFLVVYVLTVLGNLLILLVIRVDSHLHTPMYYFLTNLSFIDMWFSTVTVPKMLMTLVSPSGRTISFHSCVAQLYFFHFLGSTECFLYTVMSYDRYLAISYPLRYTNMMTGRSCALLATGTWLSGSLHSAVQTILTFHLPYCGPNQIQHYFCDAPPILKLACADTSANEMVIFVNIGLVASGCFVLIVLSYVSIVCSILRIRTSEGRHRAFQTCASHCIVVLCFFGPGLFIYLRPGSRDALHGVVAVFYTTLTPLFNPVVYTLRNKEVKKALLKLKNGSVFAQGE
Outline: as §1

OR10G8 (Homo sapiens) = molecular target: T4, OR10G8 (Homo sapiens) (UniProt Q8NGN5)
T4 sequence (whole entry): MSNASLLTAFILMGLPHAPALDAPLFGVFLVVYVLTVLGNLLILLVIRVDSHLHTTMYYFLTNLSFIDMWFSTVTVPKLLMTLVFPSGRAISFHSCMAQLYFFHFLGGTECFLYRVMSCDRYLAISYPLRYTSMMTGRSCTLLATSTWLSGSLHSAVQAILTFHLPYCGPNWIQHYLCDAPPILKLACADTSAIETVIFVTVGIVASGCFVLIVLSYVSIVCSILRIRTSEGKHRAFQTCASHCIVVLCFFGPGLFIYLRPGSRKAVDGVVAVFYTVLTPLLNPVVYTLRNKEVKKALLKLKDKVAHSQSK
Outline: as §1

OR10H1 (Homo sapiens) = molecular target: T5, OR10H1 (Homo sapiens) (UniProt Q9Y4A9)
T5 sequence (whole entry): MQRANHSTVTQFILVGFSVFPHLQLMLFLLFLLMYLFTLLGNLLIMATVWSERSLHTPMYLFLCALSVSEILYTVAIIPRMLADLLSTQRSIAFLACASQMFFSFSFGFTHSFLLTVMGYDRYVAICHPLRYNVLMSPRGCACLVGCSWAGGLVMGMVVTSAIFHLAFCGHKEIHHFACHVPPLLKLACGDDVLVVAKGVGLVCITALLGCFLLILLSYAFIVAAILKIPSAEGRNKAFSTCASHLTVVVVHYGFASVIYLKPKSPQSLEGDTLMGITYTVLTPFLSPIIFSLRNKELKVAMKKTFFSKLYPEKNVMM
Outline: as §1

OR10H3 (Homo sapiens) = molecular target: T6, OR10H3 (Homo sapiens) (UniProt O60404)
T6 sequence (whole entry): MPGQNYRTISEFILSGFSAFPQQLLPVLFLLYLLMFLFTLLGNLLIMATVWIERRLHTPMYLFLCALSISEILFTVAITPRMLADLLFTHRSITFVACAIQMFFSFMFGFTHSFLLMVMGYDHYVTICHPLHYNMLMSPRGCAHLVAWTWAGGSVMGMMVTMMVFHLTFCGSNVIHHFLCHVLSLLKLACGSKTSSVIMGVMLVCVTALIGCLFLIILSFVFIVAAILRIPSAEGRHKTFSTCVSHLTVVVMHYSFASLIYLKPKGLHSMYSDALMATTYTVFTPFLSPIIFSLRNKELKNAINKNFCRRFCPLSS
Outline: as §1

OR10H4 (Homo sapiens) = molecular target: T7, OR10H4 (Homo sapiens) (UniProt Q8NGA5)
T7 sequence (whole entry): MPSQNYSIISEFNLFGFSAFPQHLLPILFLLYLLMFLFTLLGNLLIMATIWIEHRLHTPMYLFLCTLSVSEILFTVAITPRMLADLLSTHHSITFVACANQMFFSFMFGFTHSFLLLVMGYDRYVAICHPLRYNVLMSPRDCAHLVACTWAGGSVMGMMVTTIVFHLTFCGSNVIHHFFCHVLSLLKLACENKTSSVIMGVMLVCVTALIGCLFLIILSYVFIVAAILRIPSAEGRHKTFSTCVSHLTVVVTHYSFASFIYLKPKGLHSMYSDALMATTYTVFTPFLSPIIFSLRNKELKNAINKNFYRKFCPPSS
Outline: as §1

OR10J5 (Homo sapiens) = molecular target: T8, OR10J5 (Homo sapiens) (UniProt Q8NHC4)
T8 sequence (whole entry): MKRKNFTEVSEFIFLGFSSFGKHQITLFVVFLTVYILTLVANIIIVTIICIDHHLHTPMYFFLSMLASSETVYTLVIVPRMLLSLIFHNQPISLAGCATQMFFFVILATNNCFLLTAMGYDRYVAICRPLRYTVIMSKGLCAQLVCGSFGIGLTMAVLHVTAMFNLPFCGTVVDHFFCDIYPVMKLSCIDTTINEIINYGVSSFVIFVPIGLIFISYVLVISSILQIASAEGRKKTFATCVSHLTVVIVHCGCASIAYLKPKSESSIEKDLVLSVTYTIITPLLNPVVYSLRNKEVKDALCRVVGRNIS
Outline: as §1

OR10K1 (Homo sapiens) = molecular target: T9, OR10K1 (Homo sapiens) (UniProt Q8NGX5)
T9 sequence (whole entry): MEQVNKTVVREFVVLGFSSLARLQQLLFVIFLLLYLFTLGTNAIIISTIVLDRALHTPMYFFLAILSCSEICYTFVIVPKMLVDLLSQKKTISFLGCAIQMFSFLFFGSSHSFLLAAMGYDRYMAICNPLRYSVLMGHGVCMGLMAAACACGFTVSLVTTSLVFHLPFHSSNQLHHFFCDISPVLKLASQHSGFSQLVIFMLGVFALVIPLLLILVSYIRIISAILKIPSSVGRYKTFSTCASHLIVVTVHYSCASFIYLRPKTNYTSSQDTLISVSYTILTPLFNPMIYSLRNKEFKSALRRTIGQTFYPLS
Outline: as §1

OR10K2 (Homo sapiens) = molecular target: T10, OR10K2 (Homo sapiens) (UniProt Q6IF99)
T10 sequence (whole entry): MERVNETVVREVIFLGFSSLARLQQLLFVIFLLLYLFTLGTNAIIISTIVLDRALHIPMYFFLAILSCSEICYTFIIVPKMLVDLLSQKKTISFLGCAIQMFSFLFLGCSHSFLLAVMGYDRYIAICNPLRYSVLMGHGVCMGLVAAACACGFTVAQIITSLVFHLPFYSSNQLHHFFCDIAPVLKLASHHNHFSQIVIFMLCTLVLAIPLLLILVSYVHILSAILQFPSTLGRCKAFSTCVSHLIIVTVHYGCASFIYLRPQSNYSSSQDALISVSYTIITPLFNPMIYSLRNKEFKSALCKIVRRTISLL
Outline: as §1

Measured: odorant receptor agonist call

CCC(C)=O
active: OR10G7 (Homo sapiens)
inactive: all other assays above
